Data as given in patent publication US20180002437A1 (ABRUZZO THERANOSTIC S R L, published 2018).
Results are given in words; binding and its absence hold for the method and conditions named. Some entries that bind do so weakly or less than the wild type.

By UniProt entry, the sequences of proteins in these tests, tags left out. Where a name states a change or a piece, a line headed by the entry shows the natural chain unless it says otherwise.
UniProt P09758: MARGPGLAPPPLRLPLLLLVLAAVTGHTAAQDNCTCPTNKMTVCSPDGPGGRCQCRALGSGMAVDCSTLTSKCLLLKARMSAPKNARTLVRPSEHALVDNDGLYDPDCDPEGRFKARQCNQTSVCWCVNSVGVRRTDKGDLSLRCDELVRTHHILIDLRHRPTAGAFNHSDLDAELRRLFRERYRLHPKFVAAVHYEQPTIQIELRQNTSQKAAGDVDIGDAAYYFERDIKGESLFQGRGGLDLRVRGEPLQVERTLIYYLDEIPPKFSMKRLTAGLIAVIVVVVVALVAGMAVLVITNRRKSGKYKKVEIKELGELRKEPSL

What was measured:
[1] = biological target: recombinant human Trop-2-Fc fusion protein (rhTrop2; Cat. #650-T2-100, R&D Systems) (human) (UniProt P09758); assay: ELISA, plate coated with 1 ug/ml rhTrop2
[2] = biological target: recombinant human Trop-2-Fc fusion protein (rhTrop2; Cat. #650-T2-100, R&D Systems) (human) (UniProt P09758); assay: competitive ELISA on rhTrop2, competitor of biotinylated mouse 2EF
[3] = biological target: recombinant human Trop-2-Fc fusion protein (rhTrop2; Cat. #650-T2-100, R&D Systems) (human) (UniProt P09758); assay: ELISA, plate coated with 0.1 ug/ml rhTrop2, antibodies transient from HEK293
[4] = biological target: recombinant human Trop-2-Fc fusion protein (rhTrop2; Cat. #650-T2-100, R&D Systems) (human) (UniProt P09758); assay: ELISA, plate coated with 0.1 ug/ml rhTrop2, HEK293 culture supernatants
[5] = biological target: recombinant human Trop-2-Fc fusion protein (rhTrop2; Cat. #650-T2-100, R&D Systems) (human) (UniProt P09758); assay: ELISA, plate coated with 0.1 ug/ml rhTrop-2, antibodies transient from HEK293
[6] = biological target: cynomolgus monkey (Macaca fascicularis) Trop-2 on COS-7 transfectants (cynomolgus monkey (Macaca fascicularis)); assay: flow cytometry, COS-7 stable transfectants
[7] = biological target: cynomolgus monkey (Macaca fascicularis) Trop-2 on COS-7 transfectants (cynomolgus monkey (Macaca fascicularis)); assay: flow cytometry, COS-7 transfectants, Hu2EF-7 labelled with Alexa-488
[8] = biological target: recombinant human Trop-2-Fc fusion protein (rhTrop2; Cat. #650-T2-100, R&D Systems) (human) (UniProt P09758); assay: ELISA on rhTrop2, antibodies transient from HEK293
[9] = biological target: recombinant human Trop-2-Fc fusion protein (rhTrop2; Cat. #650-T2-100, R&D Systems) (human) (UniProt P09758); assay: competitive ELISA on rhTrop2, competitor of mouse 2G10
[10] = biological target: cynomolgus monkey (Macaca fascicularis) Trop-2 on COS-7 transfectants (cynomolgus monkey (Macaca fascicularis)); assay: flow cytometry, COS-7 transfectants, Hu2G10-5 labelled with Alexa-488

B1: humanized Hu2EF-5 antibody (VH5-Hu2EF and VL1-Hu2EF, IgG1/kappa) (antibody, V domains shown)
VH: QVQLVQSGAEVKKPGASVKVSCKASGYTFTNYWIGWVRQAPGQGLEWIGDIYPGGGYTNYNEKFKGRATLTADTSTSTAYMELSSLRSEDTAVYYCARGTGGGDYWGQGTLVTVSS
VL: DIVMTQSPDSLAVSLGERATINCRASQSVSTSSYSYMHWYQQKPGQPPKLLIKYASNLESGVPDRFSGSGSGTDFTLTISSLQAEDVAVYYCQHSWEIPYTFGQGTKLEIK
notes: human IgG1/kappa constant regions
For B1, the binding [1] was “binds”, the binding [2] was “binds” and the binding [3] was “binds”.

B2: humanized Hu2EF-4 antibody (VH4-Hu2EF and VL1-Hu2EF, IgG1/kappa) (antibody, V domains shown)
VH: QVQLVQSGAEVKKPGASVKVSCKASGYTFTNYWIGWVRQAPGQGLEWIGDIYPGGGYTNYNEKFKGRATLTADTSASTAYMELSSLRSEDTAVYYCARGTGGGDYWGQGTLVTVSS
VL: DIVMTQSPDSLAVSLGERATINCRASQSVSTSSYSYMHWYQQKPGQPPKLLIKYASNLESGVPDRFSGSGSGTDFTLTISSLQAEDVAVYYCQHSWEIPYTFGQGTKLEIK
notes: as for B1
With B2 the binding [1] was “binds” and the binding [2] was “binds”.

B3: chimeric 2EF IgG1/kappa antibody (Ch2EF) (antibody, V domains shown)
VH: QVQLQQSGAELVRPGTSVKMSCKAAGYTFTNYWIGWVKQRPGHGLEWIGDIYPGGGYTNYNEKFKGKATLTADTSSSTAYMQLSSLTSEDSAIYYCARGTGGGDYWGQGTLVTVSA
VL: DIVLTQSPASLAVSLGQRATISCRASQSVSTSSYSYMHWYQQKPGQPPKLLIKYASNLESGVPARFSGSGSGTDFTLNIHPVEEEDTATYYCQHSWEIPYTFGGGTKLEIK
With B3 the binding [3] was “binds” and the binding [4] was “binds”.

B4: Hu2EF variant VH-R38K (Hu2EF VH4 with R38K = Hu2EF VH7) with unmodified Hu2EF VL1 (antibody, human IgG1, V domains shown)
VH: QVQLVQSGAEVKKPGASVKVSCKASGYTFTNYWIGWVKQAPGQGLEWIGDIYPGGGYTNYNEKFKGRATLTADTSASTAYMELSSLRSEDTAVYYCARGTGGGDYWGQGTLVTVSS
VL: DIVMTQSPDSLAVSLGERATINCRASQSVSTSSYSYMHWYQQKPGQPPKLLIKYASNLESGVPDRFSGSGSGTDFTLTISSLQAEDVAVYYCQHSWEIPYTFGQGTKLEIK
With B4 the binding [5] was “binds”.

B5: humanized Hu2EF-7 antibody (Hu2EF VH7 and VL2, IgG1/kappa) (antibody, V domains shown)
VH: QVQLVQSGAEVKKPGASVKVSCKASGYTFTNYWIGWVKQAPGQGLEWIGDIYPGGGYTNYNEKFKGRATLTADTSASTAYMELSSLRSEDTAVYYCARGTGGGDYWGQGTLVTVSS
VL: DIVLTQSPDSLAVSLGERATINCRASQSVSTSSYSYMHWYQQKPGQPPKLLIKYASNLESGVPDRFSGSGSGTDFTLTISSLQAEDVAVYYCQHSWEIPYTFGGGTKLEIKR
B5 was tested, and the binding [6] was “binds”, the binding [7] was “binds” and the binding [4] was “binds”.

B6: humanized Hu2G10-1 antibody (Hu2G10 VH1 and VL1, IgG1/kappa) (antibody, V domains shown)
VH: QVQLVQSGAEVKKPGASVKVSCKASGFTFSSSYISWLRQAPGQRLEWIAWIYAGTGGTSYNQKFTGKATLTVDTSASTAYMELSSLRSEDTAVYYCARHNPRYYAMDYWGQGTTVTVSS
VL: DIQMTQSPSSLSASVGDRVTITCITSTDIDDDMNWYQQKPGKAPKLLISEGNTLRPGVPSRFSGSGYGTDFTFTISSLQPEDIATYYCLQSDNLPYTFGGGTKVEIK
For B6, the binding [8] was “binds”.

B7: humanized Hu2G10-3 antibody (Hu2G10 VH2 and VL1, IgG1/kappa) (antibody, V domains shown)
VH: QVQLVQSGAEVKKPGASVKVSCKASGFTFSSSYISWLRQAPGQRLEWIAWIYAGTGGTSYNQKFTGRVTLTVDTSASTAYMELSSLRSEDTAVYYCARHNPRYYAMDYWGQGTTVTVSS
VL: DIQMTQSPSSLSASVGDRVTITCITSTDIDDDMNWYQQKPGKAPKLLISEGNTLRPGVPSRFSGSGYGTDFTFTISSLQPEDIATYYCLQSDNLPYTFGGGTKVEIK
In the case of B7, the binding [8] is reported as “binds”.

B8: chimeric 2G10 IgG1/kappa antibody (Ch2G10) (antibody, V domains shown)
VH: QGQMQQSGAELVKPGASVKLSCKTSGFTFSSSYISWLKQKPRQSLEWIAWIYAGTGGTSYNQKFTGKAQLTVDTSSSTAYMQLSSLTSEDSAIYYCARHNPRYYAMDYWGQGTSVTVSS
VL: ETTVTQSPASLSMAIGEKVTIRCITSTDIDDDMNWYQQKPGEPPKLLISEGNTLRPGVPSRFSSSGYGTDFVFTIENMLSEDVADYYCLQSDNLPYTFGGGTKLEIKR
notes: also called Ch2G10-IgG1/k
For B8, the binding [9] was “binds” and the binding [8] was “binds”.

B9: humanized Hu2G10-6 antibody (Hu2G10 VH2 and VL3, IgG1/kappa) (antibody, V domains shown)
VH: QVQLVQSGAEVKKPGASVKVSCKASGFTFSSSYISWLRQAPGQRLEWIAWIYAGTGGTSYNQKFTGRVTLTVDTSASTAYMELSSLRSEDTAVYYCARHNPRYYAMDYWGQGTTVTVSS
VL: DTQMTQSPSSLSASVGDRVTITCITSTDIDDDMNWYQQKPGKAPKLLISEGNTLRPGVPSRFSGSGYGTDFTFTISSLQPEDIATYYCLQSDNLPYTFGGGTKVEIKR
With B9 the binding [9] was “binds”.

B10: humanized Hu2G10-5 antibody (Hu2G10 VH1 and VL3, IgG1/kappa) (antibody, V domains shown)
VH: QVQLVQSGAEVKKPGASVKVSCKASGFTFSSSYISWLRQAPGQRLEWIAWIYAGTGGTSYNQKFTGKATLTVDTSASTAYMELSSLRSEDTAVYYCARHNPRYYAMDYWGQGTTVTVSS
VL: DTQMTQSPSSLSASVGDRVTITCITSTDIDDDMNWYQQKPGKAPKLLISEGNTLRPGVPSRFSGSGYGTDFTFTISSLQPEDIATYYCLQSDNLPYTFGGGTKVEIKR
B10 was tested, and the binding [6] was “binds”, the binding [9] was “binds” and the binding [8] was “binds”. For the same binder, the binding [10] was “binds”.

B11: mouse 2EF antibody (hybridoma PD 08021) (antibody, V domains shown)
VH: QVQLQQSGAELVRPGTSVKMSCKAAGYTFTNYWIGWVKQRPGHGLEWIGDIYPGGGYTNYNEKFKGKATLTADTSSSTAYMQLSSLTSEDSAIYYCARGTGGGDYWGQGTLVTVSA
VL: DIVLTQSPASLAVSLGQRATISCRASQSVSTSSYSYMHWYQQKPGQPPKLLIKYASNLESGVPARFSGSGSGTDFTLNIHPVEEEDTATYYCQHSWEIPYTFGGGTKLEIK
notes: Mouse monoclonal purified from the hybridoma; also called murine 2EF
In the case of B11, the binding [1] is reported as “binds”.
